Measured values published in PMC3891740.
Results are given in words; binding and its absence hold for the method and conditions named. Binding seen in cells or lysates may run through a third protein. Here binding means that the protein was enriched with, or labelled near, the bait; the list need not be complete.

Amino acid sequences for entries named in this document (tags omitted).
UniProt P06748: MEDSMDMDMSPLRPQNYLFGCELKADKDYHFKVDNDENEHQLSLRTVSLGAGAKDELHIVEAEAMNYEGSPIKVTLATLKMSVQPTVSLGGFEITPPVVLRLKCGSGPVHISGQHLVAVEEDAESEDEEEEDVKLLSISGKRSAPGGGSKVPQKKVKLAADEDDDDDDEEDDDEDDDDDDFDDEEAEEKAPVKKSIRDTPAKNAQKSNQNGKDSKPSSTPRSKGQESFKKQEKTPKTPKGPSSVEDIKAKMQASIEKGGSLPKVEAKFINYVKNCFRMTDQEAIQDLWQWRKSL

Target: FLAG-TMCC1 (FLAG-tagged full-length TMCC1) (human) (UniProt O94876)
Assay: affinity purification with mass spectrometry; HEK293T transfected with FLAG-TMCC1 or vector; anti-FLAG immunoprecipitation, SDS-PAGE, Coomassie Brilliant Blue R-250 staining, bands identified by mass spectrometry

- binding: binds
Substance: nucleophosmin (from UniProt P06748 1-294)
